In article PMC11167823:
No constants are given. Whether binding was seen depends on the method and setting. Binding seen in cells or lysates may run through a third protein. Some results given as binding are weak or reduced against the parent protein; the word gives no strength.

Tests used:
[1] = molecular target: T1, Serum response factor (human (endogenous in primary EcESCs)) (UniProt P11831); experiment: co-IP; endogenous proteins; immunoprecipitation following nuclear-cytoplasmic separation of TGF-β1-stimulated primary human EcESCs
T1 sequence: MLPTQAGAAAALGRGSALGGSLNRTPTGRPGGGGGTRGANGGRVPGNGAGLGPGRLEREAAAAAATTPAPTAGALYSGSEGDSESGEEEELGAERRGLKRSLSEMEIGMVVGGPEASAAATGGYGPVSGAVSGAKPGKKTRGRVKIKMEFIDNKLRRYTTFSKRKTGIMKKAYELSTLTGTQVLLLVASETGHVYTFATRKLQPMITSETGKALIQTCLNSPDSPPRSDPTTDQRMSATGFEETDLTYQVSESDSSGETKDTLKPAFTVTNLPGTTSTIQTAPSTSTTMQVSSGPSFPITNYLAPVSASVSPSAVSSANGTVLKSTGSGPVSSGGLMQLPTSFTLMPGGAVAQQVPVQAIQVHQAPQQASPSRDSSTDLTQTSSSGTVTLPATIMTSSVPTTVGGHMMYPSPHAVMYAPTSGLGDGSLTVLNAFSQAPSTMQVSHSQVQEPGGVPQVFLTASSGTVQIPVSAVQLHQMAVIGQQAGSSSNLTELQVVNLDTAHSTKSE

[2] = molecular target: T1, Serum response factor (human (endogenous in primary EcESCs)); experiment: co-IP; endogenous proteins; whole-cell lysate of primary human EcESCs treated with or without TGF-β1 (12 ng/ml); immunoprecipitation with SRF antibody, Protein A/G PLUS-Agarose, western blot for KAT14; isotype IgG as negative control

B1: Lysine acetyltransferase 14 (protein, UniProt Q9H8E8 1-782)
chain: MDSSIHLSSLISRHDDEATRTSTSEGLEEGEVEGETLLIVESEDQASVDLSHDQSGDSLNSDEGDVSWMEEQLSYFCDKCQKWIPASQLREQLSYLKGDNFFRFTCSDCSADGKEQYERLKLTWQQVVMLAMYNLSLEGSGRQGYFRWKEDICAFIEKHWTFLLGNRKKTSTWWSTVAGCLSVGSPMYFRSGAQEFGEPGWWKLVHNKPPTMKPEGEKLSASTLKIKAASKPTLDPIITVEGLRKRASRNPVESAMELKEKRSRTQEAKDIRRAQKEAAGFLDRSTSSTPVKFISRGRRPDVILEKGEVIDFSSLSSSDRTPLTSPSPSPSLDFSAPGTPASHSATPSLLSEADLIPDVMPPQALFHDDDEMEGDGVIDPGMEYVPPPAGSVASGPVVGVRKKVRGPEQIKQEVESEEEKPDRMDIDSEDTDSNTSLQTRAREKRKPQLEKDTKPKEPRYTPVSIYEEKLLLKRLEACPGAVAMTPEARRLKRKLIVRQAKRDRGLPLFDLDQVVNAALLLVDGIYGAKEGGISRLPAGQATYRTTCQDFRILDRYQTSLPSRKGFRHQTTKFLYRLVGSEDMAVDQSIVSPYTSRILKPYIRRDYETKPPKLQLLSQIRSHLHRSDPHWTPEPDAPLDYCYVRPNHIPTINSMCQEFFWPGIDLSECLQYPDFSVVVLYKKVIIAFGFMVPDVKYNEAYISFLFVHPEWRRAGIATFMIYHLIQTCMGKDVTLHVSASNPAMLLYQKFGFKTEEYVLDFYDKYYPLESTECKHAFFLRLRR
binding [1]: binds | binding [2]: binds
